Experiment [1] addresses T1, Atto-655 labeled 9-mer peptide RRYC^Atto-655KSTEL.
T1 sequence (peptide, Atto-655 (maleimide) on the single cysteine (RRYC^Atto-655KSTEL)): RRYCKSTEL
The experiment in a line: MST; competition: 100 nM 9-mer^Atto-655 peptide and 10 µM TAPL with unlabeled competitor peptide (18-mer titrated; 9-mer at 4 mM); 22 °C; Ki fitted considering competitor depletion; both purified.

Experiment [2] has as its target T2, coreTAPL (core complex of the transporter associated with antigen processing-like, ABCB9) fused C-terminally to mVenus (human) (UniProt Q9NP78).
T2 sequence: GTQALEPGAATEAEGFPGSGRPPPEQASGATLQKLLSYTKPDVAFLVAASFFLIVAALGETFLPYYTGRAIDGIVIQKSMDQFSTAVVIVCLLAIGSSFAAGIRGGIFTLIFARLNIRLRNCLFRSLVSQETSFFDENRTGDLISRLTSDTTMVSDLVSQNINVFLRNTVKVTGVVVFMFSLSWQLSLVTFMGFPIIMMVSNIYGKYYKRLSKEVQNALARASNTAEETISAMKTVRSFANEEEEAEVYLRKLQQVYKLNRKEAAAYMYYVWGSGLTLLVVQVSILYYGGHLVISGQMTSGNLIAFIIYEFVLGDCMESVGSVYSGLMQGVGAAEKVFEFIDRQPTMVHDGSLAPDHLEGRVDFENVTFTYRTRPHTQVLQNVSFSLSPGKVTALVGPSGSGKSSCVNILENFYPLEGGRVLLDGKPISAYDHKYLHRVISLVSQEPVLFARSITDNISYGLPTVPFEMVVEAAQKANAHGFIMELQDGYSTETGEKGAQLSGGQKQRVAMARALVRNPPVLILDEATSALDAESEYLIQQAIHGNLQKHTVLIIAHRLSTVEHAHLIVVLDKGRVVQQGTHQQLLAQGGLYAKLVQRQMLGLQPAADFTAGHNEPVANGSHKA
The description is as above.

These are yes or no findings as the source states them, for the method shown. Some binding calls cover weakened binding; strength is not graded here. For some assays here: Where a sequence is shown, tags or fusion partners need not be part of it.

Consider “coreTAPL (core complex of the transporter associated with antigen processing-like, ABCB9) fused C-terminally to mVenus (from UniProt Q9NP78 143-766) (domain or fragment)”, for which, in experiment [1], the binding result was “binds”.

B1: 9-mer peptide … (peptide)
peptide: RRYQKSTEL
Turning to B1, the binding result in experiment [2] is “binds”.

The values above are taken from paper PMC6695453, “Peptide translocation by the lysosomal ABC transporter TAPL is regulated by coupling efficiency and activation energy” (Scientific Reports, 2019).
